System: patients with nocturia
Experiment: Continuation and termination of loxoprofen administration after the trial treatment
Assay type: in vivo, human
Protocol: After the initial study, loxoprofen was administered at the patients' discretion; 101 continued loxoprofen therapy for =320 (mean 61) days. After the evaluation, loxoprofen therapy was continued or not according to the patients' wishes (Table 5). Of 101 excellent and improved patients, 11 continued to take loxoprofen every night and 43 when necessary. The improvement of nocturia lasted for several months even after discontinuation of therapy in 11 (10%) who discontinued loxoprofen after 5 to 310 days' administration. In addition, in five patients in whom loxoprofen's effectiveness reduced after continuous administration, the effectiveness recovered with occasional administration following withdrawal for several weeks.

## CC(C(=O)O)c1ccc(CC2CCCC2=O)cc1 (stereo not drawn) [loxoprofen, loxoprofen sodium]
Excellent outcome
  Continued administration, average days: (129) days
  Continued occasional administration, average days: (95) days
  Terminated, average days: (56) days
Improved outcome
  Continued administration, average days: (60) days
  Continued occasional administration, average days: (54) days
  Terminated, average days: (20) days
